Reference: PubChem BioAssay AID248 (DTP/NCI, 2004)
The list does not hold the whole screen: it is rich in T/C values a quarter to a half above the control, in often repeated tests (any T/C) and in doses without a T/C. Other doses and runs of a compound stand elsewhere. T/C: endpoint of the treated group in % of that of the vehicle group. Some doses have a count of surviving animals in place of a T/C: the source files T/C as zero there, which appears to mark a toxic dose or a test without result, not a measured value. Some survivor counts are full or nearly so, which does not show that the dose was tolerated: the source hardly ever lists a survival T/C far under the control, and the zero likely stands for such cases as well. Counts of survivors are from the toxicity check (mostly the fifth day) where no day follows; animals may have died later. Schedule codes are those of the source, taken here to give the interval after Q, in days (D) or hours (H), and the number of doses after X.

Tested on: L1210 leukemia ip in BDF1 mice, survival T/C
Assay: NCI In Vivo Anticancer Drug Screen. Data for tumor model L1210 Leukemia (intraperitoneal) in B6D2F1 (BDF1) mice
Details: T/C endpoint: mean survival time, higher T/C = longer survival
[1] = dose: 200.0 mg/kg/injection, schedule: Q01DX001 (ip), vehicle: saline

For `CCCCCCC1=C(CCCCCCC(=O)O)C(=O)CC1`, the survivor count (dose: 100.0 mg/kg/injection, schedule: Q04DX002 (ip), vehicle: Klucel (hydroxypropylcellulose) (HPC)) was 1 of 3, the survivor count (dose: 200.0 mg/kg/injection, schedule: Q04DX002 (ip), vehicle: Klucel (hydroxypropylcellulose) (HPC)) was 1 of 3 and the survivor count (dose: 400.0 mg/kg/injection, schedule: Q04DX002 (ip), vehicle: Klucel (hydroxypropylcellulose) (HPC)) was 1 of 3.

`Cc1ccnc(NC(=O)Nc2ccccc2F)c1` was tested, and the survivor count [1] was 6 of 6.

In the case of `S=c1[nH]ncn1-c1ccccc1`, the survivor count (dose: 400.0 mg/kg/injection, schedule: Q01DX009 (ip), vehicle: Klucel (hydroxypropylcellulose) (HPC)) is reported as 0 of 6.

For `CCC(=O)OC1(c2ccccc2)CCN(C)CC1C` (stereo not given), the survivor count (dose: 100.0 mg/kg/injection, schedule: Q01DX001 (ip), vehicle: saline) was 2 of 6, the survivor count [1] was 0 of 6 and the survivor count (dose: 400.0 mg/kg/injection, schedule: Q01DX001 (ip), vehicle: saline) was 0 of 6.

`O=C(NO)c1ccccn1` was tested, and the survivor count (dose: 200.0 mg/kg/injection, schedule: Q01DX015 (ip), vehicle: water) was 3 of 6, the survivor count (dose: 270.0 mg/kg/injection, schedule: Q01DX015 (ip), vehicle: water) was 5 of 6 and the survivor count (dose: 300.0 mg/kg/injection, schedule: Q01DX015 (ip), vehicle: water) was 1 of 6. The survivor count (dose: 400.0 mg/kg/injection, schedule: Q01DX015 (ip), vehicle: water) was 0 of 6, the survivor count (dose: 600.0 mg/kg/injection, schedule: Q01DX015 (ip), vehicle: water) was 0 of 6 and the survivor count (dose: 800.0 mg/kg/injection, schedule: Q01DX015 (ip), vehicle: water) was 0 of 6.

For `CSc1ncc(C#N)c(N)n1`, the survivor count (dose: 400.0 mg/kg/injection, schedule: Q04DX003 (ip), vehicle: saline with Tween-80) was 2 of 6.
